No constants are given. Whether binding was seen depends on the method and setting. Binding seen in cells or lysates may run through a third protein. Some entries that bind do so weakly or less than the wild type.
Biological target: SDHA (mouse (endogenous in iBMDM)) (UniProt Q8K2B3)
Test: co-IP

By UniProt entry, the sequences of proteins in these tests, tags left out. Residues count along the entry.
UniProt Q8K2B3, residues 43-664: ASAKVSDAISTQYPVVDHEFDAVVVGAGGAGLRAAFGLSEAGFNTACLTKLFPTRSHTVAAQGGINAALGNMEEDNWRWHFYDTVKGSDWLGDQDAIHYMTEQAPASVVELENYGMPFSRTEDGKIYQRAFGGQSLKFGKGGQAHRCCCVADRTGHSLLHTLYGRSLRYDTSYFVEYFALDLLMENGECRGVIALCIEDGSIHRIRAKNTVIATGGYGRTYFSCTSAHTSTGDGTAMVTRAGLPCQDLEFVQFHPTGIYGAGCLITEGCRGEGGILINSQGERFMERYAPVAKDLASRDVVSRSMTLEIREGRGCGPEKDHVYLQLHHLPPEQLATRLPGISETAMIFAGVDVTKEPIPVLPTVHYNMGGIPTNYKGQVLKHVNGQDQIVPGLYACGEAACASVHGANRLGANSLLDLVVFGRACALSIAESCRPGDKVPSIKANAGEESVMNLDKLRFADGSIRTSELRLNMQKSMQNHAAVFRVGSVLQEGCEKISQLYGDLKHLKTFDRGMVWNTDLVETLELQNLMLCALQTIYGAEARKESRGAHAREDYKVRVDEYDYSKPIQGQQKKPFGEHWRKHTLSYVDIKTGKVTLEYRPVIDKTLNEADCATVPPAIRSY
UniProt Q9D6J5, residues 29-186: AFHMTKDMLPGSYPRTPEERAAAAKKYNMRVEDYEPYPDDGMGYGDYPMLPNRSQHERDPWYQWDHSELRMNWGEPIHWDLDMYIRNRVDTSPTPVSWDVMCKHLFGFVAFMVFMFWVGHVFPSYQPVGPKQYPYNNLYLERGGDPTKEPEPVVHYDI
UniProt Q03265, residues 44-553: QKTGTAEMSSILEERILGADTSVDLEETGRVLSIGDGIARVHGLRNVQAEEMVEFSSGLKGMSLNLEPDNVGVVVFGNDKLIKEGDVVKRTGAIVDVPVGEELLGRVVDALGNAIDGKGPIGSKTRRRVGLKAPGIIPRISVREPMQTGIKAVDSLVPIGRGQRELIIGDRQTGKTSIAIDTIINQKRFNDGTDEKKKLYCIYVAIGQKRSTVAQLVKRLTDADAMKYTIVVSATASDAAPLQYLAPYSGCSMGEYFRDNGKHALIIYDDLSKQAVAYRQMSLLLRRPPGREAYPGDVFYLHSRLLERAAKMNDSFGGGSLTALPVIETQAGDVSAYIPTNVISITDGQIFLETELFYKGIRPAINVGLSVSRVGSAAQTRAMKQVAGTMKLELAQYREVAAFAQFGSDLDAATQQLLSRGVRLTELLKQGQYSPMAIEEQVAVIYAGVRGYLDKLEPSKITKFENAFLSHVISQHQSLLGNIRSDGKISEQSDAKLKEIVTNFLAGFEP

Row | binding | Molecule
1 | no binding | NDUFB8 (from UniProt Q9D6J5 29-186)
2 | binds | succinate dehydrogenase B (SDHB) (protein, UniProt Q9CQA3 31-282) AQTAAAAAPRIKKFAIYRWDPDKTGDKPRMQTYEVDLNKCGPMVLDALIKIKNEVDSTLTFRRSCREGICGSCAMNINGGNTLACTRRIDTDLSKVSKIYPLPHMYVIKDLVPDLSNFYAQYKSIEPYLKKKDESQEGKQQYLQSIEDREKLDGLYECILCACCSTSCPSYWWNGDKYLGPAVLMQAYRWMIDSRDDFTEERLAKLQDPFSVYRCHTIMNCTQTCPKGLNPGKAIAEIKKMMATYKEKRALA

Second part, the molecule before the results:

Row | Molecule | binding
3 | ATPA5 (from UniProt Q03265 44-553) | no binding
4 | UQCRC2 (protein, UniProt Q9DB77 15-453) SLKVAPKVKTSAAPGGVPLQPQDLEFTKLPNGLVIASLENYAPLSRIGLFVKAGSRYEDSNNLGTSHLLRLASSLTTKGASSFKITRGIEAVGGKLSVTATRENMAYTVEGIRSDIEILMEFLLNVTTAPEFRRWEVAALRSQLKIDKAVAFQNSQTRIIENLHDVAYKNALANPLYCPDYRMGKITSEELHYFVQNHFTSARMALVGLGVSHSVLKQVAEQFLNMRGGLGLAGAKAKYRGGEIREQNGDNLVHAAIVAESAAIGNAEANAFSVLQHLLGAGPHIKRGNNTTSLLSQSVAKGSHQPFDVSAFNASYSDSGLFGIYTISQAAAAGEVINAAYNQVKAVAQGNLSSADVQAAKNKLKAGYLMSVETSEGFLSEIGSQALAAGSYMPPSTVLQQIDSVADADVVKAAKKFVSGKKSMAASGNLGHTPFLDEL | no binding
